# Experimental data reported in the supplement of paper PMC9135407.
# Where “and” joins values, the source holds several entries; their conditions need not be identical. Equal entries are not always repeated. Structures can show the parent of a compound that is named as a salt. ± gives the standard deviation of the averaged measurements. Some of the results follow. Plates or batches differ in their baseline, so values are only roughly comparable.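 Assay uses culture-activated primary human stellate myofibroblasts; lipid droplet recovery indicates inactivation. Measured: proportion of Hoechst-counted cells over a plate-specific Bodipy cutoff, duplicate wells, DMSO and nortriptyline as per-plate negative and positive controls. A hit scores, control-normalized, above the plate's top-tenth-percentile nortriptyline wells or ranks among its three best wells. Final well concentrations not reported.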
# System: primary human hepatic stellate cells (donor 1)
# Assay: percent Bodipy-positive cells; higher = more lipid droplet accumulation
# Conditions: 48 h
# [1] = library stock concentration: 3.33 mM
# [2] = library stock concentration: 10 mM
# [3] = library stock concentration: 80 uM
# [4] = library stock concentration: 400 uM
# [5] = library stock concentration: 2 mM
# [6] = library stock concentration: 1 mM
smiles,measurement,setting,value
O=C1Nc2ccc(I)cc2C1=Cc1cc(Br)c(O)c(Br)c1,percent Bodipy-positive cells,[1],7.21 ± 3.4%
same,percent Bodipy-positive cells,[2],23.9 ± 2.1%
CC(C)(Cc1ccc2ccccc2c1)NC[C@@H](O)COc1cccc(Cl)c1C#N,percent Bodipy-positive cells,[1],54.2 ± 8.1%
same,percent Bodipy-positive cells,[2],84.2 ± 3.4%
O=C(c1cn(Cc2cncn2Cc2ccc(Br)cc2)cc1-c1cccc2ccccc12)N1CCOCC1,percent Bodipy-positive cells,[1],46.2 ± 8.2%
same,percent Bodipy-positive cells,[2],89.7 ± 7.9%
CCN1CCN(C(=O)N[C@@H](C(=O)N[C@@H]2C(=O)N3C(C(=O)O)=C(CSc4nnnn4C)CS[C@H]23)c2ccc(O)cc2)C(=O)C1=O [Cefoperazone],percent Bodipy-positive cells,[1],8.98 ± 3.8%
same,percent Bodipy-positive cells,[2],14.8 ± 2.8%
CCN1CCN(C(=O)N[C@@H](C(=O)N[C@@H]2C(=O)N3C(C(=O)O)=C(CSc4nnnn4C)CS[C@H]23)c2ccc(O)cc2)C(=O)C1=O [Cefoperazone sodium],percent Bodipy-positive cells,library stock concentration: 3 mM,17.7 ± 1.7%
same,percent Bodipy-positive cells,[2],21.1 ± 2.6%
CCN1CCN(C(=O)N[C@@H](C(=O)N[C@@H]2C(=O)N3C(C(=O)O)=C(CSc4nnnn4C)CS[C@H]23)c2ccc(O)cc2)C(=O)C1=O [Cefoperazone acid],percent Bodipy-positive cells,library stock concentration: 3.1 mM,8.76 ± 5.1%
CCN1CCN(C(=O)N[C@@H](C(=O)N[C@@H]2C(=O)N3C(C(=O)O)=C(CSc4nnnn4C)CS[C@H]23)c2ccc(O)cc2)C(=O)C1=O [Cefoperazone dihydrate],percent Bodipy-positive cells,,27.4 ± 0.74%
CN(C)CCOc1ccc(/C(=C(/CCCl)c2ccccc2)c2ccccc2)cc1 [Toremifene Citrate],percent Bodipy-positive cells,[1],33.7 ± 12%
CN(C)CCOc1ccc(/C(=C(/CCCl)c2ccccc2)c2ccccc2)cc1 [Toremifene],percent Bodipy-positive cells,library stock concentration: 4.9 mM,24.9 ± 2.2%
CN(C)CCOc1ccc(/C(=C(/CCCl)c2ccccc2)c2ccccc2)cc1,percent Bodipy-positive cells,[2],33.2 ± 0.52%
"CCCn1c(=O)c2c(ncn2C)n(CCC)c1=O [1,3-Dipropyl-7-methylxanthine]",percent Bodipy-positive cells,[2],29.9 ± 16%
C[C@H]1C[C@H]2[C@@H]3CCC4=CC(=O)C=C[C@]4(C)[C@@]3(F)[C@@H](O)C[C@]2(C)[C@@]1(O)C(=O)CO [Betamethasone],percent Bodipy-positive cells,,19.1 ± 5.7%
same,percent Bodipy-positive cells,[1],6.52 ± 2.8%
same,percent Bodipy-positive cells,library stock concentration: 4 mM,6.94 ± 0.46%
CC(C)COCC(CN(Cc1ccccc1)c1ccccc1)N1CCCC1.Cl (stereo not drawn),percent Bodipy-positive cells,library stock concentration: 12.4 mM,89.64 ± 0.59%
"CNC(=O)[C@H](Cc1c[nH]c2ccccc12)NC(=O)[C@@H](CC(=O)NO)CC(C)C [Ilomastat (GM6001, Galardin)]",percent Bodipy-positive cells,[1],30.7 ± 2.5%
same,percent Bodipy-positive cells,[2],29.9 ± 4.8%
CNC(=O)[C@H](Cc1c[nH]c2ccccc12)NC(=O)[C@@H](CC(=O)NO)CC(C)C,percent Bodipy-positive cells,library stock concentration: 12.9 mM,13.3 ± 1%
Cc1cc(/C(=C/Nc2ccc(Cl)cc2)C(=O)Nc2ccc(Cl)cc2)on1,percent Bodipy-positive cells,[2],27.6 ± 3.1%
Oc1ccc(OCc2ccccc2)cc1 [Monobenzone],percent Bodipy-positive cells,,12 ± 0.21%
same,percent Bodipy-positive cells,[1],12.4 ± 3%
same,percent Bodipy-positive cells,[2],20.2 ± 14%
CCCc1nc(C)c2c(=O)nc(-c3cc(S(=O)(=O)N4CCN(CC)CC4)ccc3OCC)[nH]n12,percent Bodipy-positive cells,[2],28.3 ± 9.6%
CCCc1nc(C)c2c(=O)nc(-c3cc(S(=O)(=O)N4CCN(CC)CC4)ccc3OCC)[nH]n12 [Vardenafil HCl Trihydrate],percent Bodipy-positive cells,[1],13.6 ± 5.8%
same,percent Bodipy-positive cells,[2],44.2 ± 4.7%
CNC(=O)c1cc(COc2nnc(Nc3ccc(Cl)cc3)c3ccoc23)ccn1 [Telatinib],percent Bodipy-positive cells,[1],37.8 ± 5.8%
same,percent Bodipy-positive cells,[2],72.7 ± 2.7%
COc1cc2nccc(Oc3ccc(NC(=O)C4(C(=O)Nc5ccc(F)cc5)CC4)cc3)c2cc1OC [Cabozantinib malate (XL184)],percent Bodipy-positive cells,[1],35.1 ± 3.2%
same,percent Bodipy-positive cells,[2],67.4 ± 3.4%
COc1cc2nccc(Oc3ccc(NC(=O)C4(C(=O)Nc5ccc(F)cc5)CC4)cc3)c2cc1OC,percent Bodipy-positive cells,[3],5.25 ± 0.098%
same,percent Bodipy-positive cells,[4],7.04 ± 2.5%
same,percent Bodipy-positive cells,[5],19.9 ± 2.2%
same,percent Bodipy-positive cells,[1],58.7 ± 8.9%
same,percent Bodipy-positive cells,[2],63.8% and 60.8%
O=C(O)/C=C/c1ccc(Cn2ccnc2)cc1 [Ozagrel],percent Bodipy-positive cells,[6],10 ± 1.5%
same,percent Bodipy-positive cells,[1],8.46 ± 2.4%
same,percent Bodipy-positive cells,library stock concentration: 8.8 mM,11.4 ± 5.2%
same,percent Bodipy-positive cells,[2],12.3 ± 6.2%
O=C(O)/C=C/c1ccc(Cn2ccnc2)cc1 [Ozagrel hydrochloride],percent Bodipy-positive cells,,7.69 ± 2.8%
same,percent Bodipy-positive cells,[2],6.82 ± 0.75%
O=C(O)/C=C/c1ccc(Cn2ccnc2)cc1 [Ozagrel HCl],percent Bodipy-positive cells,[1],8.06 ± 2.1%
same,percent Bodipy-positive cells,[2],11.6 ± 1.8%
O=C(O)/C=C/c1ccc(Cn2ccnc2)cc1,percent Bodipy-positive cells,[2],6.51 ± 0.4%
COCCOC(=O)C1=C(C)NC(C)=C(C(=O)OC/C=C/c2ccccc2)C1c1cccc([N+](=O)[O-])c1 (stereo not drawn) [Cilnidipine],percent Bodipy-positive cells,[1],4.86 ± 2.9%
"CCCCC(C)(C)[C@H](O)C=C[C@H]1[C@H](O)CC(=O)[C@@H]1CCCCCCC(=O)O [16,16-dimethyl Prostaglandin E1]",percent Bodipy-positive cells,[6],18.7 ± 3%
CCOc1nc2cccc(C(=O)O)c2n1Cc1ccc(-c2ccccc2-c2noc(=O)[nH]2)cc1 [Azilsartan],percent Bodipy-positive cells,[1],11.2 ± 4.7%
same,percent Bodipy-positive cells,[2],11.8 ± 1.3%
CCCCC[C@H](O)/C=C/[C@H]1[C@H](O)CC(=O)[C@@H]1CCCCCCCO [Prostaglandin E1 Alcohol],percent Bodipy-positive cells,[6],32.5 ± 9.6%
O=C1c2ccccc2C(Cc2ccnc(F)c2)(Cc2ccnc(F)c2)c2ccccc21,percent Bodipy-positive cells,[2],7.94 ± 2.8%
Cc1cc([C@@H](C)Nc2ccccc2C(=O)O)c2nc(N3CCOCC3)cc(=O)n2c1,percent Bodipy-positive cells,[3],13.2 ± 6.5%
same,percent Bodipy-positive cells,[4],8.82 ± 0.9%
same,percent Bodipy-positive cells,[5],12.8 ± 2.2%
same,percent Bodipy-positive cells,[1],5.49 ± 2.2%
same,percent Bodipy-positive cells,[2],10.4% and 8.75%
CCCCNc1ccc(C(=O)OCCOCCOCCOCCOCCOCCOCCOCCOCCOC)cc1 [Benzonatate],percent Bodipy-positive cells,,31.1 ± 2.6%
O=c1c(-c2ccc(O)cc2)coc2c([C@@H]3O[C@H](CO)[C@@H](O)[C@H](O)[C@H]3O)c(O)ccc12 [Puerarin],percent Bodipy-positive cells,[1],6.79 ± 0.13%
same,percent Bodipy-positive cells,[2],17.6 ± 9.6%
CCn1nc(C(=O)O)c(=O)c2cc3c(cc21)OCO3 [Cinoxacin],percent Bodipy-positive cells,,9.97 ± 0.55%
same,percent Bodipy-positive cells,library stock concentration: 7.6 mM,2.67 ± 1.5%
same,percent Bodipy-positive cells,[2],14.8% and 35.7%
CCCCN1CCC(CCC(=O)c2cc(Cl)c(N)cc2OC)CC1,percent Bodipy-positive cells,[2],36.8 ± 1.3%
Cc1cc(/C=C/c2ccc3cc(N(C)C)ccc3[n+]2C)c(C)n1-c1ccccc1 [Pyrvinium pamoate],percent Bodipy-positive cells,,14.7 ± 5%
same,percent Bodipy-positive cells,library stock concentration: 2.6 mM,59.85 ± 0.29%
same,percent Bodipy-positive cells,[2],79.9 ± 3%
CCCC[C@H](CCC(=O)O)NC(=O)CCCCCCc1ccccc1,percent Bodipy-positive cells,[6],14.2 ± 1.1%
CNC(=O)c1cc2c(cn1)[nH]c1ccccc12 [N-Methyl-beta-carboline-3-carboxamide],percent Bodipy-positive cells,[2],63.2 ± 4.2%
CNC(=O)c1cc2c(cn1)[nH]c1ccccc12,percent Bodipy-positive cells,[2],9.91 ± 1%
Cc1cc(=O)oc2cc(O)ccc12,percent Bodipy-positive cells,[2],31 ± 9.1%
Cc1cc(=O)oc2cc(O)ccc12 [Hymecromone],percent Bodipy-positive cells,,9.89 ± 0.27%
Cc1cc(=O)oc2cc(O)ccc12 [4-Methylumbelliferone (4-MU)],percent Bodipy-positive cells,[1],9.39 ± 1.1%
same,percent Bodipy-positive cells,[2],16.5 ± 4.3%
CC(C)C[C@H](NC(=O)[C@@H](COC(C)(C)C)NC(=O)[C@H](Cc1ccc(O)cc1)NC(=O)[C@H](CO)NC(=O)[C@H](Cc1c[nH]c2ccccc12)NC(=O)[C@H](Cc1cnc[nH]1)NC(=O)[C@@H]1CCC(=O)N1)C(=O)N[C@@H](CCCNC(=N)N)C(=O)N1CCC[C@H]1C(=O)NNC(N)=O,percent Bodipy-positive cells,library stock concentration: 9.6 mM,15.2 ± 2.8%
CC(C)C[C@H](NC(=O)[C@@H](COC(C)(C)C)NC(=O)[C@H](Cc1ccc(O)cc1)NC(=O)[C@H](CO)NC(=O)[C@H](Cc1c[nH]c2ccccc12)NC(=O)[C@H](Cc1cnc[nH]1)NC(=O)[C@@H]1CCC(=O)N1)C(=O)N[C@@H](CCCNC(=N)N)C(=O)N1CCC[C@H]1C(=O)NNC(N)=O [Goserelin acetate],percent Bodipy-positive cells,library stock concentration: 1.6 mM,7.83 ± 2.6%

# 5 records picked at random from the list so far:
smiles,measurement,setting,value
Cc1cc([C@@H](C)Nc2ccccc2C(=O)O)c2nc(N3CCOCC3)cc(=O)n2c1,percent Bodipy-positive cells,[2],10.4% and 8.75%
COc1cc2nccc(Oc3ccc(NC(=O)C4(C(=O)Nc5ccc(F)cc5)CC4)cc3)c2cc1OC,percent Bodipy-positive cells,[4],7.04 ± 2.5%
CCCc1nc(C)c2c(=O)nc(-c3cc(S(=O)(=O)N4CCN(CC)CC4)ccc3OCC)[nH]n12,percent Bodipy-positive cells,[2],28.3 ± 9.6%
O=c1c(-c2ccc(O)cc2)coc2c([C@@H]3O[C@H](CO)[C@@H](O)[C@H](O)[C@H]3O)c(O)ccc12 [Puerarin],percent Bodipy-positive cells,[1],6.79 ± 0.13%
CNC(=O)c1cc2c(cn1)[nH]c1ccccc12 [N-Methyl-beta-carboline-3-carboxamide],percent Bodipy-positive cells,[2],63.2 ± 4.2%
